Measured values as given in patent US9044520B2 (Nihon Medi-Physics Co., Ltd., priority 2011, dated 2015).

Test: general procedure: Fmoc solid-phase peptide synthesis; Fmoc-SAL resin (0.65 mol/g); HBTu/HOBt; DIC-HOOBt for formyl-Nle
Conditions: whole synthesis, 220 nm, scale of the general procedure 0.32 mmol

Substance | final HPLC purity (trifluoroacetate) [%] | final HPLC purity (TFA salt) [%]
formyl-Nle-Leu-Phe-Nle-Tyr-DLys-ε([^19F]FB)-NH2 | 95.2 | –
formyl-Met-Leu-Phe-Nle-Tyr-DLys-ε([^19F]FB)-NH2 | – | 99.5
formyl-Nle-Leu-Phe-Nle-Tyr-DLys-DLys-DLys-ε([^19F]FB)-NH2 | 99.3 | –
formyl-Nle-Leu-Phe-Nle-Tyr-DLys-DLys-DLys-DLys-ε([^19F]FB)-DLys-NH2 | 99.8 | –
